Source: paper PMC3656144

The chains behind the UniProt entries cited, without tags or fusion partners.
UniProt P34574: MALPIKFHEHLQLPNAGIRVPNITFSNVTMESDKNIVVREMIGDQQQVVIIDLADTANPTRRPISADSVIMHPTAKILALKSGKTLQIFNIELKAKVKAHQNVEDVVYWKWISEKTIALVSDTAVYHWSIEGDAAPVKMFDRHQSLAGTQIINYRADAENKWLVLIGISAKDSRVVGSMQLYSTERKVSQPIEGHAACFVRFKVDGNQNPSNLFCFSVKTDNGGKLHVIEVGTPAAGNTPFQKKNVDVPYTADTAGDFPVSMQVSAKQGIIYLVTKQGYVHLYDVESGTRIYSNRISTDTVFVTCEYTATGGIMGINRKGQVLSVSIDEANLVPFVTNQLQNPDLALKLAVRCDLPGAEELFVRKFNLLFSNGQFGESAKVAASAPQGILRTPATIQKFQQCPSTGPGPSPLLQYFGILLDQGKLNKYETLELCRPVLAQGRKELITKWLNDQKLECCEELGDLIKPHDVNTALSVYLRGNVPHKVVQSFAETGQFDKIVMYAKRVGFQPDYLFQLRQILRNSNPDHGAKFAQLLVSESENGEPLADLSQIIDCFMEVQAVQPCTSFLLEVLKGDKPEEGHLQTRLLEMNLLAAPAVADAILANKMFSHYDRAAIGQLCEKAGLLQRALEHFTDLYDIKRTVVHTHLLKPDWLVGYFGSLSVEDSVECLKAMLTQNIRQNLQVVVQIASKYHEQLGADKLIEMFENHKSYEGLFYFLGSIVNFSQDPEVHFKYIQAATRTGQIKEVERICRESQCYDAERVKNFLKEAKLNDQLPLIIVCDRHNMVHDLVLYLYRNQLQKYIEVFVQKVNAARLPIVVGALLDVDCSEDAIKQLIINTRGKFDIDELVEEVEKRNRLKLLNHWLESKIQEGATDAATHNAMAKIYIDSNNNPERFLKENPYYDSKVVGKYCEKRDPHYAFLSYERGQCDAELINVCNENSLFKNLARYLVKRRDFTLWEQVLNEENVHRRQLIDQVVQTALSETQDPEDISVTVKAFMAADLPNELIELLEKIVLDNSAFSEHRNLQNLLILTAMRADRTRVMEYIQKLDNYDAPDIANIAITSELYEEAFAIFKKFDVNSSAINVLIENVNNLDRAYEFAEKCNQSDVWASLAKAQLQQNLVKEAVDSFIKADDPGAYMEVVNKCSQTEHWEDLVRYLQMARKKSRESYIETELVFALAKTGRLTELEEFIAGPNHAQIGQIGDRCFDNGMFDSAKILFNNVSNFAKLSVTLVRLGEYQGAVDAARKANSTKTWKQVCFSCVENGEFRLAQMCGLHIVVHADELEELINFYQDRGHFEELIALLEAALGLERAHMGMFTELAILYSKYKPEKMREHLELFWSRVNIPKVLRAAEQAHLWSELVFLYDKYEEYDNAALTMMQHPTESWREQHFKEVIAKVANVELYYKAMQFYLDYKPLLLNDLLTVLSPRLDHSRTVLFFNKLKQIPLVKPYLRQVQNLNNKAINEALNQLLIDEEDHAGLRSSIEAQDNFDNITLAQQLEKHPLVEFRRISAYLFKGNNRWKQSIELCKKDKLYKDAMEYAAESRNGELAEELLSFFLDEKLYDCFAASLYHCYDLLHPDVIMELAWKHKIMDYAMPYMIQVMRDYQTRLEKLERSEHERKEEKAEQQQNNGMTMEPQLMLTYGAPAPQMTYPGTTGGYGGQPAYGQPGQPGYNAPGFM

Columns and labels:
[1] = molecular target: T1, endogenous CED-1 (C. elegans (endogenous in whole animal lysate)) (UniProt Q9XWD6); assay: affinity purification with mass spectrometry; immunoprecipitation with CED-1C or CED-6 antibodies from whole cell lysates of N2, ced-1(e1735) and ced-6(n1813) animals; precipitates on SDS-PAGE, gel regions analysed by LC-MS/MS
T1 sequence: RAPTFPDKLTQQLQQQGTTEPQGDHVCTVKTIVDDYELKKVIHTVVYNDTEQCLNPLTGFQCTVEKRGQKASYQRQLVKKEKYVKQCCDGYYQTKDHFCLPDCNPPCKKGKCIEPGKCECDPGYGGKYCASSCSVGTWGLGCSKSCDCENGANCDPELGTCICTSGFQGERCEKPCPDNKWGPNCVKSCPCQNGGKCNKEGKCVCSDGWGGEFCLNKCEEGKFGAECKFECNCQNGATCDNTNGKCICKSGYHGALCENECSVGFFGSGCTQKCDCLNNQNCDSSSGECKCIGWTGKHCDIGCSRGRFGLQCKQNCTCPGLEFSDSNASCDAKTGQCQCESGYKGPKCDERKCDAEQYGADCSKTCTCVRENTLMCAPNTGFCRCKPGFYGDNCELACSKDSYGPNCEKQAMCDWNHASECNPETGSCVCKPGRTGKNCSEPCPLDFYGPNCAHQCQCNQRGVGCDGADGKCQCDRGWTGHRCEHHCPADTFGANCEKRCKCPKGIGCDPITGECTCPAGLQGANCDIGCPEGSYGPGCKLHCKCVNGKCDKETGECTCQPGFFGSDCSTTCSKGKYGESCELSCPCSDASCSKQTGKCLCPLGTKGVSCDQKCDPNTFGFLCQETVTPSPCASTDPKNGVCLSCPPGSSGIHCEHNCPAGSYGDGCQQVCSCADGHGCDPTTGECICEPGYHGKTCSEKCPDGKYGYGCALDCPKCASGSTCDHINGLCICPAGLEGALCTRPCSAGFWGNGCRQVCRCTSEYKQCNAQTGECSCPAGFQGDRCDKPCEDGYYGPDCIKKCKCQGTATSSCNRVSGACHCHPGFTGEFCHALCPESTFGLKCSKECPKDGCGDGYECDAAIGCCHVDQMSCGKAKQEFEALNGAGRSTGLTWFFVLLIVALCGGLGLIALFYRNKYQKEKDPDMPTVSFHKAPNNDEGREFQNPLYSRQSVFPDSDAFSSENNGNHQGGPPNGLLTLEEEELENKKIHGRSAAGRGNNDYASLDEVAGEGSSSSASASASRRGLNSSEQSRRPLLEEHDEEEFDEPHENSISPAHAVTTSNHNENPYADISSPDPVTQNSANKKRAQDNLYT

[2] = molecular target: T2, endogenous CED-6 (C. elegans (endogenous in whole animal lysate)) (UniProt O76337); assay: as above
T2 sequence: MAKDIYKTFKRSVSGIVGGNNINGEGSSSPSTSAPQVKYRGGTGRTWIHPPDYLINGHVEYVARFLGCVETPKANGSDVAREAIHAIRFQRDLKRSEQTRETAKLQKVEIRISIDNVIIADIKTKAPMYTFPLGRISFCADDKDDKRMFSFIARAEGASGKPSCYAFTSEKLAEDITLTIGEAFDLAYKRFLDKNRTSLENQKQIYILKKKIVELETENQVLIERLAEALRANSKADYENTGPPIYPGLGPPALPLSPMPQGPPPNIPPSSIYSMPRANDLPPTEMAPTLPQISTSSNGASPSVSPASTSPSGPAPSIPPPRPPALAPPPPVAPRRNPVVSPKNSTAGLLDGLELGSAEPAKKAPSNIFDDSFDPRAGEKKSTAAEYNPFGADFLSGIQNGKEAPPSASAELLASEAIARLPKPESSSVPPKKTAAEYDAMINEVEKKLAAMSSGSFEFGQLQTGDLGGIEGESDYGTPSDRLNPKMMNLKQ

binding [1]: binds
binding [2]: binds
Substance: heavy chain of clathrin (CHC-1), endogenous (from UniProt P34574 1-1681)

No constants are given. Whether binding was seen depends on the method and setting. Binding seen in cells or lysates may run through a third protein. Here binding means that the protein was enriched with, or labelled near, the bait; the list need not be complete.
